Reference: the supplement of paper PMC12872613
Where a name gives a salt, the structure may show the parent alone. The list shows a part of the results. Cut-off read from the data, not from the text of the source: active = 0.7 or more and inactive = the rest. Repeats are few or missing, and single values can be far off.

tested on: MiaPaCa-2 CLSA-25; test: cell death relative to DMSO vehicle (fraction); higher = more cytotoxic; settings: 5 µM; treatment time 48 h; medium cystine 25 µM

| SMILES | cell death |
| --- | --- |
| C1CCN2C[C@@H]3C[C@@H](CN4CCCC[C@@H]34)[C@H]2C1 [(-)-Sparteine sulfate pentahydrate] | inactive: 0.131 |
| CC12CC3CC(C)(C1)CC(N)(C3)C2 [Memantine hydrochloride] | inactive: 0.192 |
| CCOc1cc(CC(=O)N[C@@H](CC(C)C)c2ccccc2N2CCCCC2)ccc1C(=O)O [Repaglinide] | inactive: 0.0979 |
| C=CCNC(N)=S [Allylthiourea] | inactive: 0.0423 |
| CC(C)(CO)[C@@H](O)C(=O)NCCC(=O)NCCSSCCNC(=O)CCNC(=O)[C@H](O)C(C)(C)CO [D-Pantethine] | inactive: 0.0974 |
| Cc1cccc(C)c1OCC(C)N (configuration not stated) [Mexiletine hydrochloride] | active: 0.794 |
| N=C(N)NN [Aminoguanidine hydrochloride] | inactive: 0.273 |
| CC1=C(O)C(=O)C=C2C1=CC=C1[C@@]2(C)CC[C@@]2(C)[C@@H]3C[C@](C)(C(=O)O)CC[C@]3(C)CC[C@]12C [Celastrol] | active: 0.925 |
| O=C(CCN1CCN(C(=O)OCc2cc(Cl)cc(Cl)c2)CC1)c1ccc2[nH]c(=O)oc2c1 | inactive: 0.0511 |
| O=C(O)Cn1nnc(-c2cc(N3CCC(Oc4cc(F)ccc4Br)CC3)no2)n1 | inactive: 0.19 |
| O=c1[nH]cnc2c1ncn2[C@@H]1O[C@H](CO)[C@@H](O)[C@H]1O [Inosine] | inactive: -0.00107 |
| O=C(O)c1cc(-c2ccc(F)cc2F)ccc1O [Diflunisal] | inactive: 0.049 |

As a working copy, some entries already given:

| SMILES | cell death |
| --- | --- |
| O=c1[nH]cnc2c1ncn2[C@@H]1O[C@H](CO)[C@@H](O)[C@H]1O [Inosine] | inactive: -0.00107 |
| O=C(O)c1cc(-c2ccc(F)cc2F)ccc1O [Diflunisal] | inactive: 0.049 |
